According to the supplement of paper PMC11098740:
This is one part of the list. Single values are uncertain, as repeats are few or missing.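 The assay uses a mixed pool of 41 HAP1 clones in which 61 cancer-associated proteins bear intron-inserted fluorescent tags, and clones are distinguished by image pattern. Results are compared against DMSO-treated control wells, and the BRD4 degrader dBET6 is the positive control.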

The chains behind the UniProt entries cited, without tags or fusion partners.
UniProt O14980, whole entry: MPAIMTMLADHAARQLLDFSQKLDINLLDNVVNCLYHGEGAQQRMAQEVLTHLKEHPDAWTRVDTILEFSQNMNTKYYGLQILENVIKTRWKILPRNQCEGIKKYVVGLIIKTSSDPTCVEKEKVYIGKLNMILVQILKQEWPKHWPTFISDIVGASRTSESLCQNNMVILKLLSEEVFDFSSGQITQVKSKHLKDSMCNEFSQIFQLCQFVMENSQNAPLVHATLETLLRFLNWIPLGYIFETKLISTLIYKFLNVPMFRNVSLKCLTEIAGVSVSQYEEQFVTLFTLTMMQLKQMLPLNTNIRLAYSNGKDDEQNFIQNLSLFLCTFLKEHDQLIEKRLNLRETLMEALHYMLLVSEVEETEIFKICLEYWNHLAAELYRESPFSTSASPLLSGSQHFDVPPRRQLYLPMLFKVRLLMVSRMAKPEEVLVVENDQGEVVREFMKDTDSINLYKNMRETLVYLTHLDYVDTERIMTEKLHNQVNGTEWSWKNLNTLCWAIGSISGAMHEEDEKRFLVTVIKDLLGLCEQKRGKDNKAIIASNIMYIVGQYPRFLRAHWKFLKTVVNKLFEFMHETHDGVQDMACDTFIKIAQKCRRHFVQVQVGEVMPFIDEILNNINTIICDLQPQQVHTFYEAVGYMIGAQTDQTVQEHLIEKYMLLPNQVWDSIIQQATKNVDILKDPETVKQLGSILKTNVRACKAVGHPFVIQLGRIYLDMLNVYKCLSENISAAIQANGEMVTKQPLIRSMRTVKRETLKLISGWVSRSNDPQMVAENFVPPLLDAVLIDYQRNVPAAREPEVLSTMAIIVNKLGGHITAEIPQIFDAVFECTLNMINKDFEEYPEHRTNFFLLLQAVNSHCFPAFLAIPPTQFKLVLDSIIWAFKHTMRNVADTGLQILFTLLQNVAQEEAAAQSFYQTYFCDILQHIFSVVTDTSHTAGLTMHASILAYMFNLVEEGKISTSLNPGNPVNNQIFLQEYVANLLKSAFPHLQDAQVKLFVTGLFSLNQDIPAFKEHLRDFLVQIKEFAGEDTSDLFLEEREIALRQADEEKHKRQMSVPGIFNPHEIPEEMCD

Key:
[1] = biological target: XPO1 (intron 15 mScarlet tag, HAP1) (UniProt O14980); test: XPO1 fluorescence intensity change vs DMSO (log2 fold change); higher = more XPO1 protein; settings: 6 h
[2] = biological target: BRD4 (intron 10 mScarlet tag, HAP1) (UniProt O60885); test: BRD4 median nuclear fluorescence intensity change vs DMSO (log2 fold change); higher = more BRD4 protein; settings: 6 h

`Cc1cc(NCCCn2ccc3ccccc32)c2ccccc2n1` (10 µM) was tested, and the “XPO1 fluorescence intensity change (log2)” value [1] was 0.0948 and the “BRD4 median nuclear fluorescence intensity change (log2)” value [2] was -0.0336.
With `C[C@@H]1COCCN1c1cc(C2([S@](C)(=N)=O)CC2)nc(-c2cc[nH]c3nccc2-3)n1` (20 µM) the “XPO1 fluorescence intensity change (log2)” value [1] was 0.00394 and the “BRD4 median nuclear fluorescence intensity change (log2)” value [2] was -0.0855.
With `CCCCCCC/C=C/C=C(\C)[C@H]1CC(=O)NC[C@H](O)[C@H](C)C(=O)NCC/C=C/C=C/C=C/C(=O)O1` (16 µM) the “XPO1 fluorescence intensity change (log2)” value [1] was 0.101 and the “BRD4 median nuclear fluorescence intensity change (log2)” value [2] was -0.0312.
For `CSc1ccc(Cl)c(C(=O)N2CC(=O)Nc3ccccc32)c1` (10 µM), the “XPO1 fluorescence intensity change (log2)” value [1] was 0.114 and the “BRD4 median nuclear fluorescence intensity change (log2)” value [2] was 0.129.
With `CC(=O)N(c1nc(/C=C/C(=O)c2ccc(O)c(CCCl)c2)cs1)c1cccc(C)c1C` (10 µM) the “XPO1 fluorescence intensity change (log2)” value [1] was 0.0311 and the “BRD4 median nuclear fluorescence intensity change (log2)” value [2] was -0.00281.
In the case of `CCOC(=O)c1sc2nc(CCl)nc(N)c2c1C` (10 µM), the “XPO1 fluorescence intensity change (log2)” value [1] is reported as -0.178 and the “BRD4 median nuclear fluorescence intensity change (log2)” value [2] is reported as 0.0152.
`Cc1cc(F)cc(S(=O)(=O)Nc2ccc3c(c2)C(=O)NCC3)c1` (10 µM) was tested, and the “XPO1 fluorescence intensity change (log2)” value [1] was -0.0158 and the “BRD4 median nuclear fluorescence intensity change (log2)” value [2] was 0.066.
`O=C(CSc1nnc(-c2ccccc2)o1)Nc1ccccc1F` (10 µM) was tested, and the “XPO1 fluorescence intensity change (log2)” value [1] was 0.045 and the “BRD4 median nuclear fluorescence intensity change (log2)” value [2] was -0.00967.
In the case of `COc1ccc2nc(C)c(C(=O)Nc3nc(-c4ccccn4)cs3)cc2c1` (10 µM), the “XPO1 fluorescence intensity change (log2)” value [1] is reported as -0.0119 and the “BRD4 median nuclear fluorescence intensity change (log2)” value [2] is reported as 0.0233.
`O=C(Nc1cc(C(F)F)ns1)Nc1cc(F)ncc1CO` (10 µM) was tested, and the “XPO1 fluorescence intensity change (log2)” value [1] was 0.0754 and the “BRD4 median nuclear fluorescence intensity change (log2)” value [2] was -0.0693.
In the case of `CC(C)N(C[C@H]1O[C@@H](n2cnc3c(N)ncnc32)[C@H](O)[C@@H]1O)[C@H]1C[C@@H](CCc2nc3cc(C(C)(C)C)ccc3[nH]2)C1` (10 µM), the “XPO1 fluorescence intensity change (log2)” value [1] is reported as -0.177 and the “BRD4 median nuclear fluorescence intensity change (log2)” value [2] is reported as -0.0187.
For `O=C(Nc1nc(-c2ccccn2)cs1)c1ccccc1` (10 µM), the “XPO1 fluorescence intensity change (log2)” value [1] was 0.0108 and the “BRD4 median nuclear fluorescence intensity change (log2)” value [2] was 0.14.
For `Cc1ccc(C)c(-n2ccnc2SCC(=O)Nc2cc(C)no2)c1` (10 µM), the “XPO1 fluorescence intensity change (log2)” value [1] was -0.13 and the “BRD4 median nuclear fluorescence intensity change (log2)” value [2] was -0.0425.
With `CC(C)n1nc(-c2ccc3oc(N)nc3c2)c2c(N)ncnc21` (0.12345679 µM) the “XPO1 fluorescence intensity change (log2)” value [1] was -0.00628 and the “BRD4 median nuclear fluorescence intensity change (log2)” value [2] was -0.0783.
`Cc1cc(Sc2ccc3c(c2)OCCCO3)n2ncnc2c1` (10 µM) was tested, and the “XPO1 fluorescence intensity change (log2)” value [1] was -0.0383 and the “BRD4 median nuclear fluorescence intensity change (log2)” value [2] was 0.183.
`O=C(Cc1noc(CCl)n1)NCc1ccccc1` (10 µM) was tested, and the “XPO1 fluorescence intensity change (log2)” value [1] was 0.0363 and the “BRD4 median nuclear fluorescence intensity change (log2)” value [2] was 0.0562.
With `Cc1ccc(C2=Nn3c(COc4ccccc4F)nnc3SC2)c(C)c1` (0.1 µM) the “XPO1 fluorescence intensity change (log2)” value [1] was 0.0821 and the “BRD4 median nuclear fluorescence intensity change (log2)” value [2] was 0.0207.
`CCCCn1c(CCl)nc2cc(S(N)(=O)=O)ccc21` (10 µM) was tested, and the “XPO1 fluorescence intensity change (log2)” value [1] was 0.0165 and the “BRD4 median nuclear fluorescence intensity change (log2)” value [2] was 0.121.
With `CC(C)(C#N)c1ccc(NC(=O)Cn2cc(Br)c(=O)[nH]c2=O)cc1` (10 µM) the “XPO1 fluorescence intensity change (log2)” value [1] was 0.143 and the “BRD4 median nuclear fluorescence intensity change (log2)” value [2] was 0.0308.
With `COc1cc(/C=C/C(=O)c2ccc(O)c(CCCl)c2)cc(OC)c1` (10 µM) the “XPO1 fluorescence intensity change (log2)” value [1] was -0.766 and the “BRD4 median nuclear fluorescence intensity change (log2)” value [2] was -0.0663.
For `O=C(Nc1ccc(N2CCCCCC2)cc1)c1ccccc1` (10 µM), the “XPO1 fluorescence intensity change (log2)” value [1] was 0.0339 and the “BRD4 median nuclear fluorescence intensity change (log2)” value [2] was 0.0843.
With `COc1ccc(C(=O)Nc2ncc(Cc3ccc(Cl)cc3)s2)cc1` (1 µM) the “XPO1 fluorescence intensity change (log2)” value [1] was 0.0257 and the “BRD4 median nuclear fluorescence intensity change (log2)” value [2] was 0.0918.
With `N#CC(C#N)=C1C=CC=CN1/C(=C/c1ccccc1OC(F)F)C(=O)c1ccccc1` (10 µM) the “XPO1 fluorescence intensity change (log2)” value [1] was 0.22 and the “BRD4 median nuclear fluorescence intensity change (log2)” value [2] was 0.103.
In the case of `Nc1nc(Cl)nc2c1ncn2[C@H]1C[C@H](O)[C@@H](CO)O1` [cladribine] (1 µM), the “XPO1 fluorescence intensity change (log2)” value [1] is reported as -0.312 and the “BRD4 median nuclear fluorescence intensity change (log2)” value [2] is reported as 0.0281.
`COC(=O)c1ccc(CSc2ncnc3[nH]ncc23)cc1` (10 µM) was tested, and the “XPO1 fluorescence intensity change (log2)” value [1] was -0.0962 and the “BRD4 median nuclear fluorescence intensity change (log2)” value [2] was 0.0371.
In the case of `Cc1ccc(Sc2ccc(NC(=O)CCn3cncn3)cc2)cc1C` (10 µM), the “XPO1 fluorescence intensity change (log2)” value [1] is reported as 0.0326 and the “BRD4 median nuclear fluorescence intensity change (log2)” value [2] is reported as 0.0429.
`NCC(CO)Cc1cccc(OC(F)(F)F)c1` (stereo unspecified) (10 µM) was tested, and the “XPO1 fluorescence intensity change (log2)” value [1] was -0.0466 and the “BRD4 median nuclear fluorescence intensity change (log2)” value [2] was 0.148.
For `Cc1cc(NC(=O)c2ccc(O)c(Cl)c2)ccc1N1CCCC1=O` (10 µM), the “XPO1 fluorescence intensity change (log2)” value [1] was 0.0122 and the “BRD4 median nuclear fluorescence intensity change (log2)” value [2] was 0.0839.
`Cc1cc(C)cc(Nc2nc(-c3ccc(Br)cc3)cs2)c1` (10 µM) was tested, and the “XPO1 fluorescence intensity change (log2)” value [1] was -0.0286 and the “BRD4 median nuclear fluorescence intensity change (log2)” value [2] was 0.214.
For `COc1ccc(C2NC(=O)c3ccc(Cl)cc3N2)c(OC)c1OC` (stereo unspecified) (10 µM), the “XPO1 fluorescence intensity change (log2)” value [1] was -0.21 and the “BRD4 median nuclear fluorescence intensity change (log2)” value [2] was -0.00939.
`NNC(=O)c1cn(-c2ccccc2)nc1-c1ccc(F)cc1` (10 µM) was tested, and the “XPO1 fluorescence intensity change (log2)” value [1] was -0.169 and the “BRD4 median nuclear fluorescence intensity change (log2)” value [2] was -0.0142.
For `Cn1c(=O)c(F)c(Nc2ccc(I)cc2F)c2c(=O)n(C[C@@H](O)CO)cnc21` (10 µM), the “XPO1 fluorescence intensity change (log2)” value [1] was 0.0419 and the “BRD4 median nuclear fluorescence intensity change (log2)” value [2] was 0.0323.
With `O=C(CCc1cccs1)Nc1ncc(Cc2cccc(Cl)c2)s1` (0.1 µM) the “XPO1 fluorescence intensity change (log2)” value [1] was -0.0127 and the “BRD4 median nuclear fluorescence intensity change (log2)” value [2] was 0.0645.
`CSc1ccc(NC(=O)c2cc(-c3ccncc3)nc3ccccc23)cc1` (10 µM) was tested, and the “XPO1 fluorescence intensity change (log2)” value [1] was -0.081 and the “BRD4 median nuclear fluorescence intensity change (log2)” value [2] was 0.0447.
`COc1ccc(CN(C)c2ncnc3sccc23)cc1` (10 µM) was tested, and the “XPO1 fluorescence intensity change (log2)” value [1] was -0.0688 and the “BRD4 median nuclear fluorescence intensity change (log2)” value [2] was -0.0362.
For `Cc1ccc2c(c1)c(=O)n(C)c1nnc(CCl)n21` (10 µM), the “XPO1 fluorescence intensity change (log2)” value [1] was -0.0698 and the “BRD4 median nuclear fluorescence intensity change (log2)” value [2] was -0.0659.
For `Cc1cc(C(C)Nc2ncccc2C#N)c(C)o1` (stereo unspecified) (10 µM), the “XPO1 fluorescence intensity change (log2)” value [1] was 0.21 and the “BRD4 median nuclear fluorescence intensity change (log2)” value [2] was 0.11.
For `O=C(Cc1noc2ccccc12)Nc1ccc(Cn2ccccc2=O)cc1` (10 µM), the “XPO1 fluorescence intensity change (log2)” value [1] was 0.138 and the “BRD4 median nuclear fluorescence intensity change (log2)” value [2] was 0.0899.
